# Data from article PMC10334838.
# No constants are given. Whether binding was seen depends on the method and setting. In cells and extracts the contact can be indirect. Some results given as binding are weak or reduced against the parent protein; the word gives no strength.
# T1: endogenous TRAF6 (mouse peritoneal exudate macrophages) (mouse (endogenous in peritoneal exudate macrophages)) (UniProt P70196)
# T1 sequence: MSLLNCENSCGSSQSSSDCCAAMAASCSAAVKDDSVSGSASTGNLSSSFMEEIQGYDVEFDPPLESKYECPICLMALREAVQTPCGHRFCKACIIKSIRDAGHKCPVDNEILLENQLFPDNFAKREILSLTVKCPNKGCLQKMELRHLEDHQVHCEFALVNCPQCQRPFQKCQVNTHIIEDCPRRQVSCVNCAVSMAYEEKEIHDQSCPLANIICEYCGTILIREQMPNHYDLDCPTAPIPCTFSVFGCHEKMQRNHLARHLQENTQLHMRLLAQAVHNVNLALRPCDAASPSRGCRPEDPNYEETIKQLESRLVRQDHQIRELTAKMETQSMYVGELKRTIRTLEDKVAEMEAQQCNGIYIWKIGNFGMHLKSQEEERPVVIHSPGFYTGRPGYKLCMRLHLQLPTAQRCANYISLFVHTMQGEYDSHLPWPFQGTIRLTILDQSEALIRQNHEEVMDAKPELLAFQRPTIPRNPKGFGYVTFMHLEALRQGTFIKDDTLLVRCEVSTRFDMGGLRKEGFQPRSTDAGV
# B1: endogenous Sufu (mouse peritoneal exudate macrophages) (protein, UniProt Q9Z0P7 1-484)
# chain: MAELRPSVAPGPAAPPASGPSAPPAFASLFPPGLHAIYGECRRLYPDQPNPLQVTAIVKYWLGGPDPLDYVSMYRNMGSPSANIPEHWHYISFGLSDLYGDNRVHEFTGTDGPSGFGFELTFRLKRETGESAPPTWPAELMQGLARYVFQSENTFCSGDHVSWHSPLDNSESRIQHMLLTEDPQMQPVRTPFGVVTFLQIVGVCTEELHSAQQWNGQGILELLRTVPIAGGPWLITDMRRGETIFEIDPHLQERVDKGIETDGSNLSGVSAKCAWDDLSRPPEDEEDSRSICLGTQPRRLSGKDTEQIRETLRRGLEINSKPVLPPINSQRQNGLTHDRAPSRKDSLGSDSSTAIIPHELIRTRQLESVHLKFNQESGALIPLCLRGRLLHGRHFTYKSITGDMAITFVSTGVEGAFATEEHPYAAHGPWLQILLTEEFVEKMLEDLEDLTSPEEFKLPKEYSWPEKKLKVSILPDVVFDSPLH
# Target: T1, endogenous TRAF6 (mouse peritoneal exudate macrophages) (mouse (endogenous in peritoneal exudate macrophages))
# Test: co-IP; endogenous proteins in mouse PEMs, untreated and challenged with LPS (100 ng/mL) for the indicated times
binder,measurement,value
B1,binding,binds
